The list shows a part of the results, in another mix than the full data. The data scatter; read single values as rough.
compound: COC(=O)/C=C/c1ccccc1 [methyl cinnamate]; experiment: log2 ratio of iodoacetamide-alkyne labeling of the cysteine site, DMSO over compound (competition); higher = stronger covalent engagement of the cysteine by the compound, active = 1 or more; settings: 500 µM; treatment time 1 h; system: HEK293T cell lysate
In short: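 HEK293T lysate (2 mg/mL) was incubated with electrophile (500 µM) or vehicle for 1 h at ambient temperature and then with iodoacetamide alkyne for 1 h. Labelled proteins were clicked to sCIP-TMT reagents, pooled, digested, enriched on streptavidin and measured by Orbitrap Eclipse LC-MS/MS with FAIMS, with FragPipe quantification. The per-cysteine log2 competition ratio is mean control-channel reporter intensity over mean compound-channel reporter intensity. Across three replicates with duplicate channels, cysteines quantified in only one replicate were excluded.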

Protein sequences, listed by entry. Tags and fused reporters are not part of them. Lines headed by an entry give the natural chain unless they say otherwise; changes in a name come on top.
UniProt Q96EY8: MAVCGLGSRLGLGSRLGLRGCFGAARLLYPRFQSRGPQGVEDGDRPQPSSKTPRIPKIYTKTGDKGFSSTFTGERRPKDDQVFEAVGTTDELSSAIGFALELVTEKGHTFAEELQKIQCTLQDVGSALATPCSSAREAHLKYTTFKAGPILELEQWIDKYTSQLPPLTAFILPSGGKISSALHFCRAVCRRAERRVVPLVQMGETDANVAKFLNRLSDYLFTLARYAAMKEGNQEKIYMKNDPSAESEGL
UniProt Q92797: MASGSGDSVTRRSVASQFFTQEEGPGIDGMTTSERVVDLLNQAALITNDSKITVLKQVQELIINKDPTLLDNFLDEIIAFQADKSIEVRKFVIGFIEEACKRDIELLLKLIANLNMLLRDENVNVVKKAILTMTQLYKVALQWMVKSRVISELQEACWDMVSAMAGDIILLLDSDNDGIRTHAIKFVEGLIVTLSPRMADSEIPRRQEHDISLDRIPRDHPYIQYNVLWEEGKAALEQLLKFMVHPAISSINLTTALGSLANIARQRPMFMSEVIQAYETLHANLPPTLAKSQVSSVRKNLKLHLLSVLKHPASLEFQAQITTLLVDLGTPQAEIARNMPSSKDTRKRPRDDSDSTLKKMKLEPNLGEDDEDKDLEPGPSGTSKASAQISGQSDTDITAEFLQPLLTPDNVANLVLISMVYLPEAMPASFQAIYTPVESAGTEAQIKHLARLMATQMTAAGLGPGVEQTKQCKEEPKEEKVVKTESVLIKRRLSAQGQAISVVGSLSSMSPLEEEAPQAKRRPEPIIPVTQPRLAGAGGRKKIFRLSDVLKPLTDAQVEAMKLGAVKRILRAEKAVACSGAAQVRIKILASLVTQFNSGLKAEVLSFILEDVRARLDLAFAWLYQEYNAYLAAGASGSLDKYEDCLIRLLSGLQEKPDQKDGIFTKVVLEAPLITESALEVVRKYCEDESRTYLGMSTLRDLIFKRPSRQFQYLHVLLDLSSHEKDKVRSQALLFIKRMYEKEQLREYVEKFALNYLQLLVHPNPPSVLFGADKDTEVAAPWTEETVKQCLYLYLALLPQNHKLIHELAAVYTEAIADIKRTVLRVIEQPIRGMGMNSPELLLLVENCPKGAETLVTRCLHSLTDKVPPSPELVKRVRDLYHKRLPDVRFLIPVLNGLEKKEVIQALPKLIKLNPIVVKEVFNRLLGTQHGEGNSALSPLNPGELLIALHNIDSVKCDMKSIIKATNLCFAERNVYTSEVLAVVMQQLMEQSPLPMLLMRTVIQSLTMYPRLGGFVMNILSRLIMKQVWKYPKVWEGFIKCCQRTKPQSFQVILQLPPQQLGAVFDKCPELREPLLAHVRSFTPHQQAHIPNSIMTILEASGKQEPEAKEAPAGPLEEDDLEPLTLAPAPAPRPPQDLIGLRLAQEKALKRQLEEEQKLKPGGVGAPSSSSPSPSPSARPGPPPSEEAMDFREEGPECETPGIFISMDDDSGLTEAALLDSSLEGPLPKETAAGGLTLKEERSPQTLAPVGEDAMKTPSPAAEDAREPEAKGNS
UniProt Q96H79: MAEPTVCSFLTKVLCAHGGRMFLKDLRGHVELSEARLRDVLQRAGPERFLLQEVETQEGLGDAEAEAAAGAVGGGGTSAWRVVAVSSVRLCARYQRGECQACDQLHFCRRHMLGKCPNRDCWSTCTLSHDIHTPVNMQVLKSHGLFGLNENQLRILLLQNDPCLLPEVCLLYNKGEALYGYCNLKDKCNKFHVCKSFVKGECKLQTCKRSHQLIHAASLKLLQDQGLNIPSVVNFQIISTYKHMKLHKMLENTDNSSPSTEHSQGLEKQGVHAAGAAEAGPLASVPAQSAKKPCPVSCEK
UniProt Q92888: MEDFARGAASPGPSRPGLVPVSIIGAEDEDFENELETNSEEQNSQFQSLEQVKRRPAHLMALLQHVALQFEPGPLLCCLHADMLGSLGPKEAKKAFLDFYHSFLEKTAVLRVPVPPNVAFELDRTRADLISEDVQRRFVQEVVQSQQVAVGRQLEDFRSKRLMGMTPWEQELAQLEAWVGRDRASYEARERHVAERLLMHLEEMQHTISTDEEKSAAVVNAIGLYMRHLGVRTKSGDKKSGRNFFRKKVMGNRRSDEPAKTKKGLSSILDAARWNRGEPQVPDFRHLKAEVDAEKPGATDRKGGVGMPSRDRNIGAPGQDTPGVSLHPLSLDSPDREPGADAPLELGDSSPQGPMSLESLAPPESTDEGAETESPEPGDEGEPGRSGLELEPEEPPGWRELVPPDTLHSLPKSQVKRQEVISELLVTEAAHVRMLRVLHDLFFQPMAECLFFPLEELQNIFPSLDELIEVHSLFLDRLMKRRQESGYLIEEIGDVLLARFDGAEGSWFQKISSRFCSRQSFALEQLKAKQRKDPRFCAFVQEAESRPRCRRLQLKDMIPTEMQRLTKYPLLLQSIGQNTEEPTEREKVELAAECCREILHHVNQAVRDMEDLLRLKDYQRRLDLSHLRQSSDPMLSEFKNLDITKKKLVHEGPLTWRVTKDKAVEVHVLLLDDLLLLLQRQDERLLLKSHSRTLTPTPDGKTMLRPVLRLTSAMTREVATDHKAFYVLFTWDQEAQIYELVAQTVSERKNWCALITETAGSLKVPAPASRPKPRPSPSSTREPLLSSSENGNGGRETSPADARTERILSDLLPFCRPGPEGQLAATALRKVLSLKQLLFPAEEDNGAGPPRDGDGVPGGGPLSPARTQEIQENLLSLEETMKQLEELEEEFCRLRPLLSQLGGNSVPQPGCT
UniProt Q96BN8, whole entry: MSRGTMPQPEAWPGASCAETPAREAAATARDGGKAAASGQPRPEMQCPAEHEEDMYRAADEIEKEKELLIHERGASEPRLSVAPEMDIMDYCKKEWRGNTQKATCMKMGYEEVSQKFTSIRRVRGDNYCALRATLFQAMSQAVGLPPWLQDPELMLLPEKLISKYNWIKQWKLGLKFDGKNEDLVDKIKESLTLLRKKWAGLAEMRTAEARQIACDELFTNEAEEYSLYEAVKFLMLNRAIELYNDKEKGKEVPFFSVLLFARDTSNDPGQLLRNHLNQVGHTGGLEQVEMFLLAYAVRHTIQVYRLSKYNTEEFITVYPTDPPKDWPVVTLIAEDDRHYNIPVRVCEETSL
UniProt Q92974: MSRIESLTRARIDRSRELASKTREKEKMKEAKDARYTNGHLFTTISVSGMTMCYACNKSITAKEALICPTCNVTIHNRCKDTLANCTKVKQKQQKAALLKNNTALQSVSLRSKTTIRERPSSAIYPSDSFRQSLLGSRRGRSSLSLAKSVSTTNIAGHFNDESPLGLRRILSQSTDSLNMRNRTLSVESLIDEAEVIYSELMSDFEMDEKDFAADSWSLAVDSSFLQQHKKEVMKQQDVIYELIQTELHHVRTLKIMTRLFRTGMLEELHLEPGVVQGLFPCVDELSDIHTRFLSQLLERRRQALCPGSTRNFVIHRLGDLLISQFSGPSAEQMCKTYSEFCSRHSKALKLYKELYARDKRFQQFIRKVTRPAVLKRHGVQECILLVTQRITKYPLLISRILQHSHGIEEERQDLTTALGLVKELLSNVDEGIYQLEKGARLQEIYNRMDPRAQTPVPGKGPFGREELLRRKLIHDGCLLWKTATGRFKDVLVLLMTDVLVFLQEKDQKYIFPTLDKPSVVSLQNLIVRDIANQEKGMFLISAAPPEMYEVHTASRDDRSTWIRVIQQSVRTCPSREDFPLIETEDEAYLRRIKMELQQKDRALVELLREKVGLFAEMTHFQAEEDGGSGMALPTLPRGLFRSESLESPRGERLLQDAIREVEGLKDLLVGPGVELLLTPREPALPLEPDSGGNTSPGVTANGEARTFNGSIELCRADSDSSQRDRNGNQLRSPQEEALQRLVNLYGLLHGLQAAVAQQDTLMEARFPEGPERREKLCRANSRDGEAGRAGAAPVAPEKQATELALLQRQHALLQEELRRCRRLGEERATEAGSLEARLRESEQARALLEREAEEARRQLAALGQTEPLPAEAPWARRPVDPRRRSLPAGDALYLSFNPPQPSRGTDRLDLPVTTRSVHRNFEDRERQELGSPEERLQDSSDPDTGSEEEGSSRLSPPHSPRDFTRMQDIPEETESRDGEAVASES
UniProt Q96GC9: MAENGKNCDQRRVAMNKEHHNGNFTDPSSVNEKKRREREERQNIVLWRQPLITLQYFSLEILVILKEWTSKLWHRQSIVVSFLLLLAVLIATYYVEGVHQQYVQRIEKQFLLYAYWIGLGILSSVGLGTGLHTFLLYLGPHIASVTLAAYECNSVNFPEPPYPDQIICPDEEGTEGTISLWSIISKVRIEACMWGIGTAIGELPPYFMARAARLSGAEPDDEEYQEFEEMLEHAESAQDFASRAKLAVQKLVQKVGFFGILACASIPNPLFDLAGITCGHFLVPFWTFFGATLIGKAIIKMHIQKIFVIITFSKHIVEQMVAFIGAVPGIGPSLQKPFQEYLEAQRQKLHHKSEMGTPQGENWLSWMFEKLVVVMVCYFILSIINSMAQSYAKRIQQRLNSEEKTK
UniProt Q96BY7: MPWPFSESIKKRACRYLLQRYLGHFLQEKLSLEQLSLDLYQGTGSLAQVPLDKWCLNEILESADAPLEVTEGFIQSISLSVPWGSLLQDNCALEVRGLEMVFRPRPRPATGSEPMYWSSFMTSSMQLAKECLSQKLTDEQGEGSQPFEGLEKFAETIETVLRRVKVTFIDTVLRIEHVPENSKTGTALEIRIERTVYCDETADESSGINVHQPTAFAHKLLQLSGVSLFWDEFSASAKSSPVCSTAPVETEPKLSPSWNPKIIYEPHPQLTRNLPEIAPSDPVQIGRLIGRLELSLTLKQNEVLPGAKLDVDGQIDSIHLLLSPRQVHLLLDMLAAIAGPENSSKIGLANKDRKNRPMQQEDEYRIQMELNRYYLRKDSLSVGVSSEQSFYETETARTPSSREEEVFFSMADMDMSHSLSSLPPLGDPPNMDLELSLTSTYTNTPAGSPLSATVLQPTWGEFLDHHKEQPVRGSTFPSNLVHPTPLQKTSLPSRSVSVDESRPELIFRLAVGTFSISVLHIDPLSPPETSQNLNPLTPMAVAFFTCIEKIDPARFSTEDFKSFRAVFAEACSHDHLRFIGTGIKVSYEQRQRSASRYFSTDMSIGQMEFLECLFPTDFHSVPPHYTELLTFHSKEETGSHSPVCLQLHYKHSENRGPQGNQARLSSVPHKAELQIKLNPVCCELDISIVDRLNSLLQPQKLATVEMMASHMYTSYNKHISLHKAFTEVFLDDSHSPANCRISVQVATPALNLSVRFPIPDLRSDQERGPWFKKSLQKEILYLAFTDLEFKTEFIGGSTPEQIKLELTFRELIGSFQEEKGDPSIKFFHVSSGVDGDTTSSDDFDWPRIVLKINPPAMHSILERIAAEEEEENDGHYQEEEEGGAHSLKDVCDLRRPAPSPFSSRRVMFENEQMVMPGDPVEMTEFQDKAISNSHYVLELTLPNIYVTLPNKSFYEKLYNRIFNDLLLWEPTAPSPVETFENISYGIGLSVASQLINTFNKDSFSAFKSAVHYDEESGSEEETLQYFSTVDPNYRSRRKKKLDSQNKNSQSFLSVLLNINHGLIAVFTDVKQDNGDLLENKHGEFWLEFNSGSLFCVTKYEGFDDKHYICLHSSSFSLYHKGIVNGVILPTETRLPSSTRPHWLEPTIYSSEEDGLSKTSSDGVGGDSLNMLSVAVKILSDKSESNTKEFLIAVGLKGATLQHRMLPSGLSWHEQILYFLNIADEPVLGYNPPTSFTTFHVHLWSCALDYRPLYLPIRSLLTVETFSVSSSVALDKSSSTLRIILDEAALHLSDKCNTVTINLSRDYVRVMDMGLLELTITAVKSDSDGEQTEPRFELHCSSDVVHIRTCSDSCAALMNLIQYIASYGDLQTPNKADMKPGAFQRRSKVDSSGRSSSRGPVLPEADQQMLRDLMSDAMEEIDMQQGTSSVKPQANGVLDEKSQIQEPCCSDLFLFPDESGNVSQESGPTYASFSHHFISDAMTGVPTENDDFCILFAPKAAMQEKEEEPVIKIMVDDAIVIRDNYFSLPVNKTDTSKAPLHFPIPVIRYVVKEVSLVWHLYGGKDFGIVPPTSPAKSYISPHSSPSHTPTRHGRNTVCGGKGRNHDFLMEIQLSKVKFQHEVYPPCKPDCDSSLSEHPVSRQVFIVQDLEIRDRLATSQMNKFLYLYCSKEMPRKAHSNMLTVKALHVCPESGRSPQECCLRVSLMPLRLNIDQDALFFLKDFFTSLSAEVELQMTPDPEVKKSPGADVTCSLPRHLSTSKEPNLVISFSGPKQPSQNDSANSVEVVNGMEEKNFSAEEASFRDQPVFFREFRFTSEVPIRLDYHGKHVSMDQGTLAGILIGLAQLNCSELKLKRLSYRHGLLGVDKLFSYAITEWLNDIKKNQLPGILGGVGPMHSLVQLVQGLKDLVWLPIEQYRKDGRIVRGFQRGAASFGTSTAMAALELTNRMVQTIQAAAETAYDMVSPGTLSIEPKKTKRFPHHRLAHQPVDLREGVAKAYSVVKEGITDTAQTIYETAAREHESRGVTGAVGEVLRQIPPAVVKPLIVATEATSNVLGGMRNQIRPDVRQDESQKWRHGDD

log2 ratio of iodoacetamide-alkyne labeling, inactive:
UniProt Q92616_C1692 -0.284, RPL36AL C88 (UniProt Q969Q0) 0.354, MMAB C132 (UniProt Q96EY8) -0.118, UniProt Q96EK5_C10 -0.0839, ZNF428 C93 (UniProt Q96B54) 0.251, MRPL38 C290 (UniProt Q96DV4) -0.042, SYMPK C686 (UniProt Q92797) 0.175, LPP C465 (UniProt Q93052) 0.0367, ZC3HAV1L C121 (UniProt Q96H79) 0.0478, UniProt Q92888_C892 -0.433, USP7 C223 (UniProt Q93009) -0.0788, GNPNAT1 C45 (UniProt Q96EK6) 0.13, USP9X C1808 (UniProt Q93008) -0.37, SMARCC1 C511 (UniProt Q92922) -0.0117, UPF1 C683 (UniProt Q92900) 0.00632, RPL36AL C72 (UniProt Q969Q0) 0.173, UniProt Q92841_C247 -0.0864, ZNF592 C1221 (UniProt Q92610) 0.223, UniProt Q96BN8_C347 0.357, EDC3 C413 (UniProt Q96F86) -0.236, ZNF503 C219 (UniProt Q96F45) 0.341, RAD50 C633 (UniProt Q92878) 0.239, NUP205 C877 (UniProt Q92621) 0.0547, DLG3 C519 (UniProt Q92796) 0.0943, TONSL C283 (UniProt Q96HA7) -0.032, ANP32B C114 (UniProt Q92688) -0.024, UniProt Q96EY4_C162 0.258, UniProt Q96BD8_C142 0.17, ARHGEF2 C383 (UniProt Q92974) 0.00267, UniProt Q96GC9_C8 0.21, LRRC59 C131 (UniProt Q96AG4) 0.221, UniProt Q96G28_C138 -0.052, ATG2B C243 (UniProt Q96BY7) 0.154, APIP C147 (UniProt Q96GX9) -0.0352, DDX27 C321 (UniProt Q96GQ7) -0.364, UniProt Q96EY5_C33 0.196, DPF2 C295 (UniProt Q92785) 0.0738

Reference: the supplement of paper PMC11006884
